Test results as given in PMC9412818.
These are yes or no findings as the source states them, for the method shown. In cells and extracts the contact can be indirect. Some results given as binding are weak or reduced against the parent protein; the word gives no strength. Sequences can lack the tags named with a protein.

Protein sequences, listed by entry. Tags and fused reporters are not part of them.
UniProt Q6U7I1: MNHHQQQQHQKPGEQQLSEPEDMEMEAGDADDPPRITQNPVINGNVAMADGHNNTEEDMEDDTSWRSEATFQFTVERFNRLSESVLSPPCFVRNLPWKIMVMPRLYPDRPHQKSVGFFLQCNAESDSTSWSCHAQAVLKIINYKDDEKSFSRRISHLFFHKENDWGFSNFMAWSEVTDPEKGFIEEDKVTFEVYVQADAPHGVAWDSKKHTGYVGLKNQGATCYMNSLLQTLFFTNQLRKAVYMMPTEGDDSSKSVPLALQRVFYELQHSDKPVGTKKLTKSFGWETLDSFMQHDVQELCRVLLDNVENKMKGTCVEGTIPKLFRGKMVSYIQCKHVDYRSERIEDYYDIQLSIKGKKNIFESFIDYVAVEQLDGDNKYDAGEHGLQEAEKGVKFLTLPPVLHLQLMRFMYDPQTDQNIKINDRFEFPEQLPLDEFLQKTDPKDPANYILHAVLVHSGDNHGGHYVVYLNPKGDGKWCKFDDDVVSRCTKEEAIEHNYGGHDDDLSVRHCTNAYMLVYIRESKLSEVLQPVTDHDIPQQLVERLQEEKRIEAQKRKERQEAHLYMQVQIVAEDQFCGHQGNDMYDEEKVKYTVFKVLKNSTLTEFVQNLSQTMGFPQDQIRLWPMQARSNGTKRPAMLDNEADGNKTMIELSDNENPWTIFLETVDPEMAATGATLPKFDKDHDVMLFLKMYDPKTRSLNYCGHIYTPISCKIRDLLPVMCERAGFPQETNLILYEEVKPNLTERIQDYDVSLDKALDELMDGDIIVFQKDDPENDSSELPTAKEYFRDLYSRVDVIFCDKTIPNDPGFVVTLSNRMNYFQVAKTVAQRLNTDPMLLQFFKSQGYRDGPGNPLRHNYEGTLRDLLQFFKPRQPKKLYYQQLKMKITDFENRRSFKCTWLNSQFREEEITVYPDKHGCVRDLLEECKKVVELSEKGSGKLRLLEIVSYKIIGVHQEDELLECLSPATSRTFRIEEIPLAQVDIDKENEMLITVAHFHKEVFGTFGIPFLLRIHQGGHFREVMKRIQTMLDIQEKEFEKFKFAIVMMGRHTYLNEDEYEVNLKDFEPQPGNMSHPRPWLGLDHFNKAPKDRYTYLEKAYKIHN

Molecular target: chicken USP7 (chUSP7), MYC-tagged (chicken) (UniProt Q6U7I1)
Test: co-IP; DF1 cells co-transfected, lysed 24 h later in RIPA buffer (50 mM Tris-HCl pH 7.4, 150 mM NaCl, 0.25% deoxycholic acid, 1 mM EDTA, 1% NP-40, 0.5% SDS); precipitated with anti-MYC beads overnight at 4°C; immunoblot

B1: chicken MyD88 (chMyD88), 3xFLAG-tagged (protein, UniProt A5HNF6 1-299)
chain: MATVPVGAGSAPGPEPADLHSVPMVALNYGVRRRLGLYLNPRAATAADWTALAEKLGHDYLEIRRLEALPDPTAALLEEWQSRCPGGATVGQLLELLRQLGRHDVLLELGGSVEEDCKKYLRRKQQEAEQPLQVPAVDSSVPKTSELMGITTRDDPYGHGTEMFDAFICYCQKDLQFVQEMIRELEQTEFKLKLCVFDRDVLPGTCVWSISGELIERRCRRMVVVISDDYLESDECDFQTKFALSLSPGARLKRLIPVKCKTMKNEFPSILRFITICDYTNPCTKKWFWTRLAKSLLLP
binding: binds
